Test [1] concerns the target PSMA4-BirA*-FLAG (human) (UniProt P25789). Put plainly: proximity labelling; BioID in HEK293T lines expressing BirA* fusions (tetracycline 4 days, 50 µM biotin 24 hr); streptavidin enrichment from lysates, DIA mass spectrometry; enrichment vs. BirA* control, n=4.
Test [2] has as its target PSMA4-miniTurbo-FLAG (HEK293T cell line) (human) (UniProt P25789). Put plainly: proximity labelling; BioID in HEK293T expressing PSMA4-miniTurbo (tetracycline 4 days, 50 µM biotin 2 hr), vehicle control without MG132; streptavidin enrichment, DIA mass spectrometry; vs. miniTurbo control.
The target is the same in test [3]. The experiment in a line: proximity labelling; BioID in HEK293T expressing PSMA4-miniTurbo (tetracycline 4 days, 50 µM biotin 2 hr) with 20 µM MG132 for 4 hr; streptavidin enrichment, DIA mass spectrometry; vs. miniTurbo control.
In test [4] the target is T1, PSMA4-miniTurbo with a FLAG tag (ProteasomeID mouse) (UniProt Q9R1P0).
T1 sequence: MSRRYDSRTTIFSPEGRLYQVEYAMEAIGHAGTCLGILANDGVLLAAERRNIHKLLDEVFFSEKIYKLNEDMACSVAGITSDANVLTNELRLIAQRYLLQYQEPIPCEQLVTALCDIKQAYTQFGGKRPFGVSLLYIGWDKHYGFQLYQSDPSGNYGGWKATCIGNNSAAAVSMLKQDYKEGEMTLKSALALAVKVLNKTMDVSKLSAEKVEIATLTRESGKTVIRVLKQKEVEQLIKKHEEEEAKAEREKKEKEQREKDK
The experiment in a line: proximity labelling; in vivo BioID in ProteasomeID mice (31 days doxycycline food, 3 daily subcutaneous biotin injections); kidney, liver, heart and skeletal muscle lysates; streptavidin enrichment, DIA mass spectrometry; vs. mice not fed doxycycline.

Sequences of proteins named here, by UniProt entry; tags and fusion partners are left off. Residues count along the entry.
UniProt P48643: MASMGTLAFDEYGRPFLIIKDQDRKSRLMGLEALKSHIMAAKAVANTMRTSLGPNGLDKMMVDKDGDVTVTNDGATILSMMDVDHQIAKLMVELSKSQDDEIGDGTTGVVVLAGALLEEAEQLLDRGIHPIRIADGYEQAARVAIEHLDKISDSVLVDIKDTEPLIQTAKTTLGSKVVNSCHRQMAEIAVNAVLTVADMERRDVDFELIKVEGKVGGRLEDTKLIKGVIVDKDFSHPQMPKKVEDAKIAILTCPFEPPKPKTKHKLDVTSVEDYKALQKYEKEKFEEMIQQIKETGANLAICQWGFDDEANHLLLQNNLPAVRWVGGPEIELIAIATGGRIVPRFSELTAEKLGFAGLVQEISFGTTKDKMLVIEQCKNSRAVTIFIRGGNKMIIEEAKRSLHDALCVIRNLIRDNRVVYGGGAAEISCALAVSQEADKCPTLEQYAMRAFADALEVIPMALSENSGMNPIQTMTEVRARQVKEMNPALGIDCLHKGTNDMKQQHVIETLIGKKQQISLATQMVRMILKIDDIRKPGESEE
UniProt Q99832: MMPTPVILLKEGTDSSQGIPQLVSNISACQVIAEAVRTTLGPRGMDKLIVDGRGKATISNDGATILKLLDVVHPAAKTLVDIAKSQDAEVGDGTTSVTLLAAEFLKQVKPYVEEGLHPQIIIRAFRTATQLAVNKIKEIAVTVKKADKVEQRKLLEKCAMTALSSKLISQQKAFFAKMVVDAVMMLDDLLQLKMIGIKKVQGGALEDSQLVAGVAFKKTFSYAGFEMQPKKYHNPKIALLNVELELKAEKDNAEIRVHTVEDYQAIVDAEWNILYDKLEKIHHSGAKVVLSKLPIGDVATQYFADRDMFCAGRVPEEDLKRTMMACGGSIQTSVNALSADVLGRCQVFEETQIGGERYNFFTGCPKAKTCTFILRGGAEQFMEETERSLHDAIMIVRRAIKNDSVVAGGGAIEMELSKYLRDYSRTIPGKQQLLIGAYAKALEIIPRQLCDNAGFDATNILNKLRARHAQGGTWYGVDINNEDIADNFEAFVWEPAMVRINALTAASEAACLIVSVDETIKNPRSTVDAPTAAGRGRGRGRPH
UniProt P01106: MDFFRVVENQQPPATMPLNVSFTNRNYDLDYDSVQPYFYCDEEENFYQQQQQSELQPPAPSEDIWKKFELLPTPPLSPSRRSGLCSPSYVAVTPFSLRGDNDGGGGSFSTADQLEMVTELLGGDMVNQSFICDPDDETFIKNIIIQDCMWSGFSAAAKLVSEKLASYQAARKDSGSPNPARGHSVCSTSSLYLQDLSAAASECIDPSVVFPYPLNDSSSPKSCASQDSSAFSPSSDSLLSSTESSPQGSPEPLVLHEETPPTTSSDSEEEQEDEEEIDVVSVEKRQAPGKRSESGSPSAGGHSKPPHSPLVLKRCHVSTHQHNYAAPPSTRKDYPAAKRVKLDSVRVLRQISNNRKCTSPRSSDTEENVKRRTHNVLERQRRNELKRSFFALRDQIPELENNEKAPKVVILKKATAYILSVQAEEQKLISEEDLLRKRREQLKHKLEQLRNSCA
UniProt Q9BXM7, residues 78-581: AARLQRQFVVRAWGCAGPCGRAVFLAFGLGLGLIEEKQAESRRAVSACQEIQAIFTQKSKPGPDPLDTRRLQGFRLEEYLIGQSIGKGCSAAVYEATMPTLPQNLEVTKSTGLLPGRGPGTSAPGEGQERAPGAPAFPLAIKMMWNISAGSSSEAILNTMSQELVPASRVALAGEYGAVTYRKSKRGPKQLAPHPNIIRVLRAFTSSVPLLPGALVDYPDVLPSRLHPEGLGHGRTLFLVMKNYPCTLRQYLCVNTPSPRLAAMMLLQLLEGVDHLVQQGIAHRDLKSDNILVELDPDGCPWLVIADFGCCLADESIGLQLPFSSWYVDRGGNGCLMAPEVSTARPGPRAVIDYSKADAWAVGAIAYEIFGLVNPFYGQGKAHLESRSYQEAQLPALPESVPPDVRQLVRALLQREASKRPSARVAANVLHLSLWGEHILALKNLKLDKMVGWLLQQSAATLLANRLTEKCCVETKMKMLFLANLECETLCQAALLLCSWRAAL
UniProt Q53EQ6: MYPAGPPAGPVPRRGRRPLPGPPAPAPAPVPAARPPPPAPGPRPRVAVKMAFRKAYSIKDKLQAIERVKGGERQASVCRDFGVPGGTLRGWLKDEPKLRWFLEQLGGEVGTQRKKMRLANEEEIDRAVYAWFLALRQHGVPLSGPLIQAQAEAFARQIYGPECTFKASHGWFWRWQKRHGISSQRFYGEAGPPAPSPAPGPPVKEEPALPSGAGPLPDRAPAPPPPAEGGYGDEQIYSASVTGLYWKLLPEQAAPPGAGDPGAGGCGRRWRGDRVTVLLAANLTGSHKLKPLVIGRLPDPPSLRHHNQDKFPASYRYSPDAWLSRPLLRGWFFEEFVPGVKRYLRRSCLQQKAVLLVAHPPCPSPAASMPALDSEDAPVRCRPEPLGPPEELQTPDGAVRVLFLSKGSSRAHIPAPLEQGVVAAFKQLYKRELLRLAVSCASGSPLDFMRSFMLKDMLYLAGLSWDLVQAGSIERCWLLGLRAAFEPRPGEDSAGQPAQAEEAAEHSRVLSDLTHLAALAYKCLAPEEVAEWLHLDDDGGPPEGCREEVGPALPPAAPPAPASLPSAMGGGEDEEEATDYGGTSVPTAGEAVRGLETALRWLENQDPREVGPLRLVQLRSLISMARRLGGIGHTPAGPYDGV
UniProt P37802: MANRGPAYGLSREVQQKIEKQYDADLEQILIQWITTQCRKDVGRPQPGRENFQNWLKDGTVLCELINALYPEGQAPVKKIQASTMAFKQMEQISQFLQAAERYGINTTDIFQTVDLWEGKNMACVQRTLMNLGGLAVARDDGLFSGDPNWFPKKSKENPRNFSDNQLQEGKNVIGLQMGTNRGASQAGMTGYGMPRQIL
UniProt Q9WVA4: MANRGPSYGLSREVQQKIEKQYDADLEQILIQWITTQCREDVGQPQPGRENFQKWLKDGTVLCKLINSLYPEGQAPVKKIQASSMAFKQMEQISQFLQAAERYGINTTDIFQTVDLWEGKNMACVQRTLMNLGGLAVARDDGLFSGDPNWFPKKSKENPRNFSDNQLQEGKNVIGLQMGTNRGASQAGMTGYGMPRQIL

Test [5] concerns the target PSMA4-BirA*-FLAG (human) (UniProt P25789). The experiment in a line: proximity labelling; BioID in HEK293T lines expressing BirA* fusions (tetracycline 4 days, 50 µM biotin 24 hr); streptavidin enrichment from lysates, DIA mass spectrometry; enrichment vs. BirA* control, n=4. This is another data set of the same source.
Test [6] addresses PSMA4-miniTurbo-FLAG (HEK293T cell line) (human) (UniProt P25789). The experiment in a line: proximity labelling; BioID in HEK293T expressing PSMA4-miniTurbo (tetracycline 4 days, 50 µM biotin 2 hr) with 20 µM MG132 for 4 hr; streptavidin enrichment, DIA mass spectrometry; vs. miniTurbo control. This is another data set of the same source.
The target is the same in test [7]. The experiment in a line: proximity labelling; BioID in HEK293T expressing PSMA4-miniTurbo (tetracycline 4 days, 50 µM biotin 2 hr), vehicle control without MG132; streptavidin enrichment, DIA mass spectrometry; vs. miniTurbo control. This is another data set of the same source.

Read-outs that look alike come from different tables or passages of the source. These are yes or no findings as the source states them, for the method shown. Binding seen in cells or lysates may run through a third protein. A yes stands for co-enrichment or nearness to the bait. Other partners may have been found. For some assays here: A no says only that the protein was not detected with the bait. For some assays here: Sequences can lack the tags named with a protein.

Regarding CCT5 (from UniProt P48643 1-541), the binding entry in the test with PSMA4-BirA*-FLAG (human) [1] is on record as “binds”.
On to CCT7 (from UniProt Q99832 1-543), for which the binding result with PSMA4-BirA*-FLAG (human) [1] is listed as “binds”.
In the case of MYC (from UniProt P01106 1-454), the binding entry in test [2] was “no binding (only vehicle control, without MG132)”; in test [3], “binds”.
Take PINK1 (from UniProt Q9BXM7 78-581): the binding entry in test [2] is reported as “no binding (only vehicle control, without MG132)”; in test [3], “binds”.
Take “Tigger transposable element-derived protein 5 (TIGD5) (from UniProt Q53EQ6 1-642)”: the binding entry in test [2] is “no binding (only vehicle control, without MG132)”; in test [3] it was “binds”.
Take “transgelin 2 (TAGLN2), endogenous in HEK293T (from UniProt P37802 1-199)”: the binding result with PSMA4-BirA*-FLAG (human) [1] is recorded as “binds”.
For the molecule “transgelin 2 (TAGLN2), endogenous in mouse organs (from UniProt Q9WVA4 1-199)”, the binding entry in test [4] is “binds”.

B1: immunoglobulin-binding protein 1 (IGBP1), endogenous in HEK293T (protein, UniProt P78318 1-339)
chain: MAAEDELQLPRLPELFETGRQLLDEVEVATEPAGSRIVQEKVFKGLDLLEKAAEMLSQLDLFSRNEDLEEIASTDLKYLLVPAFQGALTMKQVNPSKRLDHLQRAREHFINYLTQCHCYHVAEFELPKTMNNSAENHTANSSMAYPSLVAMASQRQAKIQRYKQKKELEHRLSAMKSAVESGQADDERVREYYLLHLQRWIDISLEEIESIDQEIKILRERDSSREASTSNSSRQERPPVKPFILTRNMAQAKVFGAGYPSLPTMTVSDWYEQHRKYGALPDQGIAKAAPEEFRKAAQQQEEQEEKEEEDDEQTLHRAREWDDWKDTHPRGYGNRQNMG
Take B1: the binding entry with PSMA4-BirA*-FLAG (human) [5] was “binds”.

B2: armadillo containing protein 6 (ARMC6) (protein, UniProt Q6NXE6 1-501)
chain: MSERCCSRYSSGASIGCTPTSTQAKMVSKRIAQETFDAAVRENIEEFAMGPEEAVKEAVEQFESQGVDLSNIVKTAPKVSADGSQEPTHDILQMLSDLQESVASSRPQEVSAYLTRFCDQCKQDKACRFLAAQKGAYPIIFTAWKLATAGDQGLLLQSLNALSVLTDGQPDLLDAQGLQLLVATLTQNADEADLTCSGIRCVRHACLKHEQNRQDLVKAGVLPLLTGAITHHGHHTDVVREACWALRVMTFDDDIRVPFGHAHNHAKMIVQENKGLKVLIEATKAFLDNPGILSELCGTLSRLAIRNEFCQEVVDLGGLSILVSLLADCNDHQMRDQSGVQELVKQVLSTLRAIAGNDDVKDAIVRAGGTESIVAAMTQHLTSPQVCEQSCAALCFLALRKPDNSRIIVEGGGAVAALQAMKAHPQKAGVQKQACMLIRNLVAHGQAFSKPILDLGAEALIMQARSAHRDCEDVAKAALRDLGCHVELRELWTGQRGNLAP
As for B2, the binding result is listed as “binds” in test [6] and “no binding (only vehicle control, without MG132)” in test [7].

B3: immunoglobulin-binding protein 1 (IGBP1), endogenous in mouse organs (protein, UniProt Q61249 1-340)
chain: MAASEDELLLPRLPELFETSKKLLEDVEVATEPTGSRTIQDKVSKGLELLEKAAGMLSQLDLFSRNEDLEEIASTDLKYLMVPALQGALTMKQVNPSKRLDHLQRAREHFVHFLTQCHCYHVAEFQLPQTKTNSAENNTASSSMAYPNLVAMASQRQAKIERYKQKKEVEHRLSALKSAVESGQADDERVREYHLLHLRRWIAVSLEELESIDQEIKILKEKDSPREETACHSSLPEKPPMKPFILTRNKAQAKVFGTGYPSLATMTVSDWYEQHQKYGVLPDRGIAKPASADFQRAAQQQEDQEQKDEESEEKALHRMREWDDWKDTHPRGYGNRQNMG
As for B3, in test [4], the binding entry was “binds”.

B4: BRCA1-associated ATM activator 1 (BRAT1) (protein, UniProt Q6PJG6 1-821)
chain: MDPECAQLLPALCAVLVDPRQPVADDTCLEKLLDWFKTVTEGESSVVLLQEHPCLVELLSHVLKVQDLSSGVLSFSLRLAGTFAAQENCFQYLQQGELLPGLFGEPGPLGRATWAVPTVRSGWIQGLRSLAQHPSALRFLADHGAVDTIFSLQGDSSLFVASAASQLLVHVLALSMRGGAEGQPCLPGGDWPACAQKIMDHVEESLCSAATPKVTQALNVLTTTFGRCQSPWTEALWVRLSPRVACLLERDPIPAAHSFVDLLLCVARSPVFSSSDGSLWETVARALSCLGPTHMGPLALGILKLEHCPQALRTQAFQVLLQPLACVLKATVQAPGPPGLLDGTADDATTVDTLLASKSSCAGLLCRTLAHLEELQPLPQRPSPWPQASLLGATVTVLRLCDGSAAPASSVGGHLCGTLAGCVRVQRAALDFLGTLSQGTGPQELVTQALAVLLECLESPGSSPTVLKKAFQATLRWLLSSPKTPGCSDLGPLIPQFLRELFPVLQKRLCHPCWEVRDSALEFLTQLSRHWGGQADFRCALLASEVPQLALQLLQDPESYVRASAVTAMGQLSSQGLHAPTSPEHAEARQSLFLELLHILSVDSEGFPRRAVMQVFTEWLRDGHADAAQDTEQFVATVLQAASRDLDWEVRAQGLELALVFLGQTLGPPRTHCPYAVALPEVAPAQPLTEALRALCHVGLFDFAFCALFDCDRPVAQKSCDLLLFLRDKIASYSSLREARGSPNTASAEATLPRWRAGEQAQPPGDQEPEAVLAMLRSLDLEGLRSTLAESSDHVEKSPQSLLQDMLATGGFLQGDEADCY
With B4, the binding result is recorded as “binds” in test [6] and “no binding (only vehicle control, without MG132)” in test [7].

B5: CCT2 (protein, UniProt P78371 1-535)
chain: MASLSLAPVNIFKAGADEERAETARLTSFIGAIAIGDLVKSTLGPKGMDKILLSSGRDASLMVTNDGATILKNIGVDNPAAKVLVDMSRVQDDEVGDGTTSVTVLAAELLREAESLIAKKIHPQTIIAGWREATKAAREALLSSAVDHGSDEVKFRQDLMNIAGTTLSSKLLTHHKDHFTKLAVEAVLRLKGSGNLEAIHIIKKLGGSLADSYLDEGFLLDKKIGVNQPKRIENAKILIANTGMDTDKIKIFGSRVRVDSTAKVAEIEHAEKEKMKEKVERILKHGINCFINRQLIYNYPEQLFGAAGVMAIEHADFAGVERLALVTGGEIASTFDHPELVKLGSCKLIEEVMIGEDKLIHFSGVALGEACTIVLRGATQQILDEAERSLHDALCVLAQTVKDSRTVYGGGCSEMLMAHAVTQLANRTPGKEAVAMESYAKALRMLPTIIADNAGYDSADLVAQLRAAHSEGNTTAGLDMREGTIGDMAILGITESFQVKRQVLLSAAEAAEVILRVDNIIKAAPRKRVPDHHPC
As for B5, in the test with PSMA4-BirA*-FLAG (human) [5], the binding result is listed as “binds”.

The values are drawn from PMC11374303.
